Some results were stated once for a whole list of compounds, not compound by compound.
Assay: Photothermal effect of light activation
Format: physicochemical
Conditions: 40 μM in PBS; 50 J/cm^2, 0.5 W/cm^2

verteporfin [free-form VP]
photothermal effect ΔT: 2-3 °C

Source: patent publication US20240358837A1, “Amorphous Photosensitizing Particles, Methods For The Preparation Thereof, And Methods For The Use Thereof” (priority 2021, published 2024)
